Laboratory results published in publication PMC6868378.
No constants are given. Whether binding was seen depends on the method and setting. Binding seen in cells or lysates may run through a third protein. Some entries that bind do so weakly or less than the wild type. For part of these data: Where a sequence is shown, tags or fusion partners need not be part of it.

Chains of the proteins cited; added tags and fusions are not shown. Lines headed by an entry give the natural chain unless they say otherwise; changes in a name come on top. A line that says so, or that is headed by a name, gives the form on record, which may keep a tag or linker. Residues count along the entry.
NF-κB p50 subunit, endogenous in wild type HEK293T cells (human (endogenous in HEK293T)) (P19838, residues 1-433): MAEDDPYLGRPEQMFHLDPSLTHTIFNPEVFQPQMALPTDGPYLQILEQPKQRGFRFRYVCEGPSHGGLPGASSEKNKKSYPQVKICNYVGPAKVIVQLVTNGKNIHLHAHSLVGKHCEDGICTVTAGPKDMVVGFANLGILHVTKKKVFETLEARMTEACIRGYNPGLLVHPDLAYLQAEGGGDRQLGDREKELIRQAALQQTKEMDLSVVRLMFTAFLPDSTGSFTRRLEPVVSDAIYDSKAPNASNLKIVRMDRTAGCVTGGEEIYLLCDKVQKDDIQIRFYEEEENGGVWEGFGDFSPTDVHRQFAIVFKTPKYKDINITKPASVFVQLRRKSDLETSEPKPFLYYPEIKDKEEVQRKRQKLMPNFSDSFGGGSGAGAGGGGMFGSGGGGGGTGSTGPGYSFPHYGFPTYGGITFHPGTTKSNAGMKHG
NF-κB p50 S80A, from NFKB1^S80A knock-in HEK293T cells (human (endogenous in HEK293T)) (P19838, form named): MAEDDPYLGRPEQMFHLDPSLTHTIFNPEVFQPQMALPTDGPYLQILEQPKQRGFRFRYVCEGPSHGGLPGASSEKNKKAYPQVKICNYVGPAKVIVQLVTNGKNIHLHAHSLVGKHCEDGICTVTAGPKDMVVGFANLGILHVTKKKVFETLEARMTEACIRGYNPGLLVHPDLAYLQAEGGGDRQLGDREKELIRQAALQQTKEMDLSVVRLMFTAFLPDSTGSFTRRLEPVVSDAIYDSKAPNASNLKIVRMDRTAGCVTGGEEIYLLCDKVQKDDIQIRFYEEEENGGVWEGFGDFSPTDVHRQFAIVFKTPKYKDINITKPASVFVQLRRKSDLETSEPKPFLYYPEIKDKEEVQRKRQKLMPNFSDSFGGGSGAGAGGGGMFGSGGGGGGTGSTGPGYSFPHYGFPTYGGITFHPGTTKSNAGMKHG
UniProt P25799, residues 1-431: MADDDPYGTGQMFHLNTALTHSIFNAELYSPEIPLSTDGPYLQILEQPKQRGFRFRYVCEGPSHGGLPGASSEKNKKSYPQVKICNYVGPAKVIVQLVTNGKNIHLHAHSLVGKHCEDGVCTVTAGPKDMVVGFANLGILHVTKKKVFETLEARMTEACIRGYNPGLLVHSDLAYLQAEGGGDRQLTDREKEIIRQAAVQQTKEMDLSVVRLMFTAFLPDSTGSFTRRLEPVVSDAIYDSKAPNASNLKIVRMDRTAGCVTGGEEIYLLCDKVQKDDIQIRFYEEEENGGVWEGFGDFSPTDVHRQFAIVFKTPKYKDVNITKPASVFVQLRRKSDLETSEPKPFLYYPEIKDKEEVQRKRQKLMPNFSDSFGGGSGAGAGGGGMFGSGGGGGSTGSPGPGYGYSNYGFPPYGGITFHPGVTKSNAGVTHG
UniProt Q04206: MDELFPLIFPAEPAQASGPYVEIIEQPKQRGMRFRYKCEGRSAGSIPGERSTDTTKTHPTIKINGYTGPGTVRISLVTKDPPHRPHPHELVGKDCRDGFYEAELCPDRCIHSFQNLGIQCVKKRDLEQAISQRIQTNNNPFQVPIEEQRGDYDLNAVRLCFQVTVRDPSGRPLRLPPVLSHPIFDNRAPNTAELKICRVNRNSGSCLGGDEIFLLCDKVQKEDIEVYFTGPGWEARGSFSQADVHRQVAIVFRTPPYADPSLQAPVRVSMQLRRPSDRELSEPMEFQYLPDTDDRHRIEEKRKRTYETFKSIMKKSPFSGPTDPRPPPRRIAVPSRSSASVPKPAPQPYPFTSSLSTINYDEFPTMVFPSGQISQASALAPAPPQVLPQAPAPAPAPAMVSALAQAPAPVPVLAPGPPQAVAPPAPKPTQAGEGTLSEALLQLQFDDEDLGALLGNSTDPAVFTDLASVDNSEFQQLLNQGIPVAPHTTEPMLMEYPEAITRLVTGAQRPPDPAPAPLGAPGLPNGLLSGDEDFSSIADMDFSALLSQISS

Assays:
[1] = molecular target: NF-κB p50 subunit, endogenous in wild type HEK293T cells (human (endogenous in HEK293T)) (UniProt P19838); experiment: co-IP; WT or NFKB1^S80A HEK293T, untreated or 10 ng/ml TNFα for 30 min; endogenous p50 immunoprecipitated from whole cell lysates (RIPA buffer) with anti-p105/p50 antibody, western blot with anti-p65
[2] = molecular target: NF-κB p50 S80A, from NFKB1^S80A knock-in HEK293T cells (human (endogenous in HEK293T)) (UniProt P19838); experiment: as above
[3] = molecular target: Myc-p50 (NF-κB p50 subunit, murine cDNA in pEF4A) (mouse) (UniProt P25799); experiment: co-IP; HEK293T co-transfected with Myc-p50 and FLAG-IKKβ^SSEE or FLAG-IKKβ^K44M; p50 immunoprecipitated from whole cell lysates (RIPA buffer) with anti-Myc antibody overnight at 4°C, protein G-agarose, western blot

binding [1] | binding [2] | binding [3] | Molecule
binds | binds | – | NF-κB p65 (RelA), endogenous in HEK293T cells (from UniProt Q04206 1-551)
– | – | no binding | FLAG-IKKβ^K44M (kinase dead IKKβ) (enzyme, UniProt O14920 1-756) MSWSPSLTTQTCGAWEMKERLGTGGFGNVIRWHNQETGEQIAIMQCRQELSPRNRERWCLEIQIMRRLTHPNVVAARDVPEGMQNLAPNDLPLLAMEYCQGGDLRKYLNQFENCCGLREGAILTLLSDIASALRYLHENRIIHRDLKPENIVLQQGEQRLIHKIIDLGYAKELDQGSLCTSFVGTLQYLAPELLEQQKYTVTVDYWSFGTLAFECITGFRPFLPNWQPVQWHSKVRQKSEVDIVVSEDLNGTVKFSSSLPYPNNLNSVLAERLEKWLQLMLMWHPRQRGTDPTYGPNGCFKALDDILNLKLVHILNMVTGTIHTYPVTEDESLQSLKARIQQDTGIPEEDQELLQEAGLALIPDKPATQCISDGKLNEGHTLDMDLVFLFDNSKITYETQISPRPQPESVSCILQEPKRNLAFFQLRKVWGQVWHSIQTLKEDCNRLQQGQRAAMMNLLRNNSCLSKMKNSMASMSQQLKAKLDFFKTSIQIDLEKYSEQTEFGITSDKLLLAWREMEQAVELCGRENEVKLLVERMMALQTDIVDLQRSPMGRKQGGTLDDLEEQARELYRRLREKPRDQRTEGDSQEMVRLLLQAIQSFEKKVRVIYTQLSKTVVCKQKALELLPKVEEVVSLMNEDEKTVVRLQEKRQKELWNLLKIACSKVRGPVSGSPDSMNASRLSQPGQLMSQPSTASNSLPEPAKKSEELVAEAHNLCTLLENAIQDTVREQDQSFTALDWSWLQTEEEEHSCLEQAS
